Data source: PubChem BioAssay AID720505 (Drosophila RNAi Screening Center, 2013)

Purpose: 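Fly regulators or components of the CRAC channel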 (primary screen)
System: Drosophila S2R+ cells
Reagent: long dsRNA against Drosophila genes
Challenge: thapsigargin (2 µM) in calcium-free buffer to empty internal stores, then 2 mM calcium added back
Measured: 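Stores emptied by 2 µM thapsigargin without calcium, then 2 mM calcium re-added; fluo-4 fluorescence followed by FLIPR in 384-well plates, per-well averaged endpoint, raw; two screen passes, some wells retested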
Direction: calcium signal and retest calcium signal: higher = more calcium entry after store depletion
Rule for the call: 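Knock-downs counted as hits when calcium entry dropped relative to STIM1 positive and Rho1 negative controls present on each plate; roughly 1500 genes called, with reductions of differing size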
Calls: active = called as lowering calcium entry; inactive = not called
The deposit covers about 20,000 reagents; shown is a random part of those that have a named target and a result. In the full data, about 2,100 (10%) are marked active. 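Raw plate signals without normalisation; calls rest on control-based scores that were not deposited; replicate 2 separates called from uncalled poorly.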 A number with no mark means an inactive call. A plus sign joins genes that one reagent is predicted to hit. The record does not give: the amount of reagent, the time to read-out.

target,amplicon,"calcium signal, replicate 1","calcium signal, replicate 2","retest calcium signal, replicate 1","retest calcium signal, replicate 2"
cpb,DRSC00809,135,246,,
CG33695 + cana,DRSC01163,159,77.1,,
CG33695 + cana,DRSC03503,191,179,,
CG10663,DRSC09770,137,134,,
CG18628,DRSC10328,72.7,85.8,,
CG14420,DRSC17917,126,154,,
retn,DRSC04679,104,142,,
CG4955,DRSC19927,130,83.5,,
comr,DRSC04138,161,112,,
X11L,DRSC19958,149,132,123,119
X11L,DRSC19959,117,82.7,,
CG30177,DRSC22680,110,151,,
CG15710,DRSC06581,145,157,,
CG15543,DRSC15081,166,222,,

6 neighbouring reagents from above, for reference:
target,amplicon,"calcium signal, replicate 1","calcium signal, replicate 2","retest calcium signal, replicate 1","retest calcium signal, replicate 2"
CG10663,DRSC09770,137,134,,
CG18628,DRSC10328,72.7,85.8,,
CG14420,DRSC17917,126,154,,
retn,DRSC04679,104,142,,
CG4955,DRSC19927,130,83.5,,
comr,DRSC04138,161,112,,

The results go on:
target,amplicon,"calcium signal, replicate 1","calcium signal, replicate 2","retest calcium signal, replicate 1","retest calcium signal, replicate 2"
CG9903,DRSC20213,82.1,128,,
CG16721,DRSC18113,134,105,,
vnd,DRSC18849,88.3,103,9000,135
vnd,DRSC22487,94.2,195,,
sgl,DRSC21431,163,117,,
CG42792,DRSC01515,159,131,,
Kpc2,DRSC07635,183,150,,
CG14177 (retired record),DRSC10176,102,97.5,157,94.9
Alg10,DRSC10892,93,103,,
Shal,DRSC11283,91.2,142,,
DIP-zeta,DRSC02203,120,107,,
DIP-zeta,DRSC02204,130,123,86.8,125
DIP-zeta,DRSC02205,123,110,,
CR40450 + CG32767,DRSC18387,83.8,82.3,,
CG14050,DRSC18594,80.5,104,,
CG5902,DRSC15912,127,159,,
Tps1,DRSC00269,143,238,,
erm,DRSC00700,135,145,,
CG18063,DRSC01968,129,130,,
CG9590,DRSC16506,128,136,,
